Measurements: PubChem BioAssay AID488837 (National Center for Advancing Translational Sciences (NCATS), 2010)
The campaign covered roughly 330,000 compounds. About 20 (0.006%) were called active. This list was built around the results that the source calls inconclusive (neither active nor inactive); the mix of calls is not that of the screen. Calls follow the shape of the dose curve; as a rule, active = well fitted inhibition curve with a large enough effect; inconclusive = small, poorly fitted or top-dose-only effect, or effect the other way; inactive = flat fitted curve, though single readings scatter. Potencies beside an inconclusive call are fits to weak or partial responses and may not hold up.

Chains of the proteins cited; added tags and fusions are not shown. Lines headed by an entry give the natural chain unless they say otherwise; changes in a name come on top.
UniProt O00167: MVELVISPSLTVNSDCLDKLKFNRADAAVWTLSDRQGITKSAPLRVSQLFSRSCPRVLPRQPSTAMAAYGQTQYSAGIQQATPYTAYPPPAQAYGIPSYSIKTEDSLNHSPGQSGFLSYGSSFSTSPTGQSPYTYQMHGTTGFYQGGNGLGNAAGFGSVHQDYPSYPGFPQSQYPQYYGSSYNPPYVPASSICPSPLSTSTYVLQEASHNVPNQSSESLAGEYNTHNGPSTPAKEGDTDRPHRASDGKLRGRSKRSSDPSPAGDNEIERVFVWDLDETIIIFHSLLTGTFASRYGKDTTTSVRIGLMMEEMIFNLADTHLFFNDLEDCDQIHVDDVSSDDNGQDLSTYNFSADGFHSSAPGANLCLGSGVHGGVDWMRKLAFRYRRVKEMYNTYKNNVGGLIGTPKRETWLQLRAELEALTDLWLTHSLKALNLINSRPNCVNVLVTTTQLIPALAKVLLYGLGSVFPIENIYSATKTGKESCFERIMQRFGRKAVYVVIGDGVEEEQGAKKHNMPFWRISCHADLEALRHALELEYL

These compounds were tested against Protein phosphatase EYA2 (Homo sapiens) (UniProt O00167) (assay: qHTS Assay for Inhibitors of the Phosphatase Activity of Eya2). Conditions: recombinant Eya2, OMFP fluorescence dephosphorylation (OMFP is methylfluorescein phosphate); activity, negative = inhibition: at 76.9 µM (top of the series) unless noted.
Procedure, shortened: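 Eya2 protein (added as 0.2 uM solution) was preincubated with compound for 10 min at ambient temperature in 50 mM HEPES pH 7.5, 50 mM NaCl, 5 uM MgCl2, 0.05% BSA, 1 mM DTT. OMFP (added at 50 uM) then reacted 10 min; fluorescence read at 485/525 nm.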
% is scaled to controls: 0 for no effect and ±100 for the full control effect; potency is read from the fitted curve at half-maximal effect.

Question: How did the “activity, negative = inhibition” value turn out when Cc1cc(C)c(NC(=O)CSc2nnc(-c3ccccn3)n2N)c(Cl)c1 was run?
Answer: The value was inactive: 7.48%.

Question: With CC(=O)N1N=C(c2ccc3ccccc3c2)OC12CCCC2 as the compound, how does the Potency read?
Answer: The Potency was inconclusive: 15800 µM [inhibitor, partial curve, poor fit].

Question: For COc1ccc(NC(=O)COC(=O)c2ccc(Cl)c(S(N)(=O)=O)c2)c([N+](=O)[O-])c1, which Potency is on record?
Answer: Its Potency is inconclusive: 89.1 µM [inhibitor, single point].

Question: With CCc1c(C#N)sc(C(N)=O)c1CC as the compound, how does the Potency read?
Answer: Its Potency is inconclusive: 89.1 µM [inhibitor, single point].

Question: Which Potency does the source give for COCC(=O)N(Cc1cc2ccc(C)cc2[nH]c1=O)c1ccc(C)cc1C here?
Answer: The Potency was inconclusive: 17.8 µM [inhibitor, single point].

Question: Cc1cccc(N(CC(=O)N/N=C/c2cc([N+](=O)[O-])ccc2Cl)S(C)(=O)=O)c1C was tested. Which “activity, negative = inhibition” value did it give?
Answer: Its value is inactive: -0.237%.

Question: With O=c1c(O)c(-c2cccs2)oc2ccc(Cl)cc12 as the compound, how does the Potency read?
Answer: Its Potency is inconclusive: 31.6 µM [activator, partial curve].

Question: How did the Potency turn out when Cc1[nH]nc2c1C(CC(C)C)C(C#N)=C(N)O2 (stereo not drawn) was run?
Answer: The Potency was inconclusive: 112 µM [inhibitor, single point].

Question: With CC(C)(C)NC(=O)NC(=O)COC(=O)CCC1CCCC1 as the compound, how does the Potency read?
Answer: Its Potency is inconclusive: 112 µM [inhibitor, single point].

Question: O=C(CSc1nnc(-c2cccnc2)o1)c1cc2ccccc2oc1=O was tested. Which “activity, negative = inhibition” value did it give?
Answer: The value was inactive: 7.66%.

Question: With CCOc1ccc2cc(C#N)c(SCC(=O)N3CCOCC3)nc2c1 as the compound, how does the “activity, negative = inhibition” value read?
Answer: Its value is inactive: -29.1%.

Question: With Cn1c(/N=C/c2ccccc2[N+](=O)[O-])nc2ccccc21 as the compound, how does the Potency read?
Answer: The Potency was inconclusive: 22.4 µM [inhibitor, single point].

Question: CC(C)c1ccc(CN2CCSCC2)cc1 was tested. Which Potency did it give?
Answer: Its Potency is inconclusive: 31.6 µM [inhibitor, partial curve].

Question: With Cc1ccc(F)cc1NC(=O)CCNC(=O)c1ccc([N+](=O)[O-])cc1 as the compound, how does the Potency read?
Answer: Its Potency is inconclusive: 17.8 µM [inhibitor, single point].

Question: How did the Potency turn out when O=C(c1cc(-c2ccc(Cl)cc2)n(-c2ccc(Cl)cc2)n1)N1CCOCC1 was run?
Answer: Its Potency is inconclusive: 100 µM [inhibitor, single point].

Question: With COc1ccc(-c2csc(N(CCCN3CCOCC3)C(=O)CCl)n2)cc1 as the compound, how does the Potency read?
Answer: The Potency was inconclusive: 44.7 µM [inhibitor, partial curve, poor fit].

Question: How did the Potency turn out when C/C(=N\NC(=O)C1COc2ccccc2O1)c1ccc(N2CCOCC2)cc1 (stereo not drawn) was run?
Answer: Its Potency is inconclusive: 20 µM [inhibitor, single point].

Question: O=[N+]([O-])c1cc(CSC2=NCCN2)ccc1O was tested. Which Potency did it give?
Answer: Its Potency is inconclusive: 22400 µM [inhibitor, partial curve, poor fit].

Question: For CN[C@H]1CCc2cc(OC)c(OC)c(OC)c2-c2ccc(N(C)CC(OC)OC)c(=O)cc21, which “activity, negative = inhibition” value is on record?
Answer: Its value is inactive: 11.9%.

Question: For COc1ccccc1N1CCN(C(=O)CN2C(=O)c3ccccc3S2(=O)=O)CC1, which Potency is on record?
Answer: The Potency was inconclusive: 63.1 µM [inhibitor, single point].

Question: For CCCCn1c2ccccc2c2nnc(SCCN3CCCCC3)nc21, which Potency is on record?
Answer: The Potency was inconclusive: 2820 µM [inhibitor, partial curve, poor fit].

Question: With COc1ccccc1NC(=O)Cc1nnc(SCC(=O)NC2CCCCC2C)n1C (stereo not drawn) as the compound, how does the Potency read?
Answer: Its Potency is inconclusive: 12.6 µM [inhibitor, single point].

Question: For Cc1nn2c(-c3ccncc3)ccnc2c1Br, which Potency is on record?
Answer: The Potency was inconclusive: 112 µM [inhibitor, single point].

Question: Which Potency does the source give for CC(C)(CNC(=O)c1cc(-c2ccc(Cl)s2)nc2ccccc12)N1CCOCC1 here?
Answer: The Potency was inconclusive: 79.4 µM [inhibitor, single point].

Question: For COc1ccc(N2CCN(C(=O)Cc3ccc(OC)c(OC)c3)CC2)cc1, which Potency is on record?
Answer: The Potency was inconclusive: 25.1 µM [inhibitor, single point].

Question: How did the Potency turn out when O=C(CCC1CCN(Cc2ccc(Cl)cc2)CC1)NC1CC1 was run?
Answer: The Potency was inconclusive: 22.4 µM [inhibitor, single point].

Question: How did the Potency turn out when O=C(CC(c1ccccc1)(c1ccccc1)c1ccccc1)N[C@@H](Cc1ccccc1)C(=O)O was run?
Answer: The Potency was inconclusive: 35.5 µM [inhibitor, partial curve, poor fit].

Question: CCOC(=O)c1c(C)n(-c2ccc(C)cc2)c2c(C(C(C)=O)C(=O)O)c(Br)c(O)c(O)c12 (stereo not drawn) was tested. Which “activity, negative = inhibition” value did it give?
Answer: The value was inactive: -31.3%.

Question: Which Potency does the source give for Cc1cccc(C(=O)Oc2cccc3c(O)cccc23)c1 here?
Answer: Its Potency is inconclusive: 100 µM [inhibitor, single point].

Question: For COCC(=O)n1nc(-c2ccccc2)nc1NCc1cccs1, which Potency is on record?
Answer: Its Potency is inconclusive: 112 µM [inhibitor, single point].

Question: With Clc1c(-c2ccccc2)nc2ccccn12 as the compound, how does the Potency read?
Answer: Its Potency is inconclusive: 70.8 µM [inhibitor, partial curve].

Question: How did the “activity, negative = inhibition” value turn out when COc1cc(NS(=O)(=O)c2ccc(NC(=S)NC(=O)/C=C/c3ccco3)cc2)ncn1 was run?
Answer: The value was inactive: 1.28%.

Question: Cc1cccc(NC(=S)NC(C)(C)CC(C)(C)C)c1 was tested. Which Potency did it give?
Answer: The Potency was inconclusive: 100 µM [inhibitor, single point].

Question: How did the Potency turn out when O=C(CCNC(=O)c1ccccc1Cl)Nc1nc2ccc(F)cc2s1 was run?
Answer: The Potency was inconclusive: 100 µM [inhibitor, single point].

Question: Which Potency does the source give for O=C(NCCO)NC(=S)c1ccccc1 here?
Answer: The Potency was inconclusive: 79.4 µM [inhibitor, single point].

Question: For Fc1ccc(Nc2ccc3ccccc3n2)c(F)c1, which Potency is on record?
Answer: Its Potency is inconclusive: 794 µM [inhibitor, single point].

Question: With O=[N+]([O-])c1ccc(N2CCOCC2)cc1O as the compound, how does the “activity, negative = inhibition” value read?
Answer: Its value is inactive: 5.19%.

Question: With O=C(Nc1ccc(F)cc1)OCCOc1ccc([N+](=O)[O-])cc1 as the compound, how does the Potency read?
Answer: The Potency was inconclusive: 56.2 µM [inhibitor, single point].

Question: Which Potency does the source give for COc1ccc(NC2=NC(C)(CO)CS2)cc1 (stereo not drawn) here?
Answer: Its Potency is inconclusive: 17.8 µM [inhibitor, single point].

Question: How did the “activity, negative = inhibition” value turn out when CCCCC1=CC2=C(c3ccco3)C(=O)C(C)(OC(=O)c3ccc(OC)cc3)C(=O)C2=CN1Cc1ccccc1 (stereo not drawn) was run?
Answer: Its value is inactive: 4.72%.

Question: For Cc1ccc2[nH]c(C(=O)N/N=C/c3ccccc3C(=O)O)c(-c3ccccc3)c2c1, which Potency is on record?
Answer: Its Potency is inconclusive: 89.1 µM [inhibitor, single point].

Question: Which Potency does the source give for COc1ccc(CCNC(=O)CCSCc2ccccc2F)cc1OC here?
Answer: Its Potency is inconclusive: 112 µM [inhibitor, single point].

Question: CCS(=O)(=O)N1CCC(C(=O)Oc2ccccc2Cl)CC1 was tested. Which Potency did it give?
Answer: Its Potency is inconclusive: 1410 µM [inhibitor, single point].

Question: Cc1ccc(N(C(=O)CNC(=O)c2ccco2)C(C(=O)NC2CCCCC2)c2ccncc2)c(C)c1 (stereo not drawn) was tested. Which Potency did it give?
Answer: The Potency was inconclusive: 158 µM [inhibitor, partial curve].

Question: How did the “activity, negative = inhibition” value turn out when O=C(/C=C/c1ccccc1)c1ccccc1 was run?
Answer: The value was inactive: -1.22%.

Question: Which Potency does the source give for Cc1ccc(OCCNC(=O)c2ccc(C)cc2)cc1 here?
Answer: The Potency was inconclusive: 56.2 µM [inhibitor, partial curve, poor fit].

Question: How did the Potency turn out when CCN(Cc1ccccc1)Cc1ccc(OCc2ccccc2)c(OC)c1 was run?
Answer: The Potency was inconclusive: 22.4 µM [inhibitor, partial curve].

Question: Which Potency does the source give for Cc1nc2sc(C(=O)OC(C)C)c(N)c2c(C)c1C here?
Answer: Its Potency is inconclusive: 17.8 µM [inhibitor, single point].

Question: With COc1ccc(-c2noc(N3CCC(C(=O)NCc4ccccc4Cl)CC3)n2)cc1 as the compound, how does the “activity, negative = inhibition” value read?
Answer: Its value is inactive: -2.61%.

Question: With Cc1ccc(Cl)cc1NC(=O)CCN1C(=O)C2C3CCC(C3)C2C1=O (stereo not drawn) as the compound, how does the Potency read?
Answer: The Potency was inconclusive: 100 µM [inhibitor, single point].

Question: For COc1ccc(NC(=O)C2C3C=CC(C3)C2C(=O)O)cc1 (stereo not drawn), which Potency is on record?
Answer: The Potency was inconclusive: 20 µM [inhibitor, single point].

Question: Which Potency does the source give for Cn1nc(C(=O)Nc2nc(-c3ccc(F)cc3)cs2)ccc1=O here?
Answer: Its Potency is inconclusive: 70.8 µM [inhibitor, single point].

Question: COc1cccc(/C=N/Nc2ccnc(=O)[nH]2)c1O was tested. Which Potency did it give?
Answer: Its Potency is inconclusive: 100 µM [inhibitor, single point].

Question: For CCOC(CCNC(=O)c1cn(-c2cccc(C)n2)cn1)OCC, which Potency is on record?
Answer: Its Potency is inconclusive: 89.1 µM [inhibitor, single point].

Question: With O=C(Nc1ncccn1)c1cccc(F)c1 as the compound, how does the Potency read?
Answer: The Potency was inconclusive: 100 µM [inhibitor, single point].

Question: With CC(C)(C)C(=O)Nc1c(Cl)cccc1OC(F)(F)F as the compound, how does the Potency read?
Answer: Its Potency is inconclusive: 89.1 µM [inhibitor, single point].

Question: Which Potency does the source give for O=C1Nc2ccc(Cl)cc2C(=O)C1(F)c1ccccc1 (stereo not drawn) here?
Answer: Its Potency is inconclusive: 100 µM [inhibitor, single point].

Question: With CCn1cc(C(=O)O)c(=O)c2cc(F)c(N/N=C/c3ccccc3)cc21 as the compound, how does the “activity, negative = inhibition” value read?
Answer: Its value is inactive: -5.1%.

Question: For Cc1c(Cl)cn2c(=O)cc(CN3CCN(c4ccc(F)cc4)CC3)nc2c1Cl, which Potency is on record?
Answer: The Potency was inconclusive: 79.4 µM [inhibitor, partial curve, poor fit].

Question: COc1ccc(-c2cc(C(F)(F)F)n3nc(C(=O)N4CCN5CCCC5C4)cc3n2)cc1OC (stereo not drawn) was tested. Which Potency did it give?
Answer: The Potency was inconclusive: 15.8 µM [inhibitor, single point].

Question: For C[C@H](NC(=O)c1ccc(Cl)cc1)C(=O)OCn1nnc2ccccc2c1=O, which “activity, negative = inhibition” value is on record?
Answer: Its value is inactive: -30.3%.

Question: Which “activity, negative = inhibition” value does the source give for O=C(NC1(Cc2ccccc2)CCN(Cc2ccc(-c3ccccc3)cc2)C1=O)c1ccccc1 (stereo not drawn) here?
Answer: The value was inactive: 11.8%.

Question: How did the “activity, negative = inhibition” value turn out when CC(Oc1ccccc1)C(=O)N1CCN=C1SCc1ccccc1 (stereo not drawn) was run?
Answer: Its value is inactive: -5.73%.

Question: With O=C1CN(C(=O)/C=C/c2ccc(Br)cc2)CCN1 as the compound, how does the Potency read?
Answer: Its Potency is inconclusive: 25.1 µM [inhibitor, single point].

Question: O=C(O)c1cccc(NS(=O)(=O)c2ccc(-c3ccc(S(=O)(=O)Nc4cccc(C(=O)O)c4)cc3)cc2)c1 was tested. Which “activity, negative = inhibition” value did it give?
Answer: The value was inactive: 11.7%.

Question: How did the Potency turn out when O=C(c1cccc2ccccc12)C1CCCN(C(=O)C2CCOCC2)C1 (stereo not drawn) was run?
Answer: Its Potency is inconclusive: 20 µM [inhibitor, single point].

Question: For O=C(NCCc1c[nH]c2ccccc12)C(=O)c1c[nH]c2ccccc12, which “activity, negative = inhibition” value is on record?
Answer: Its value is inactive: -5.55%.

Question: How did the Potency turn out when COc1ccc(S(=O)(=O)N2CCCN(CC(=O)Nc3ccc4c(c3)OCO4)CC2)cc1 was run?
Answer: The Potency was inconclusive: 22.4 µM [inhibitor, single point].
